Measurements: the supplement of paper PMC4604168 (melanoma cell lines)
The list shows a part of the results. Repeats are few or missing, and single values can be far off.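 Cells were imaged in 1,536-well plates, and nuclei stained with an antibody against cleaved PARP were counted against all DNA-stained nuclei to give the apoptosis fraction. Screening doses were chosen to leave most cells alive, and resting and induced cleaved-PARP levels differ strongly between cell lines.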

Experiments:
Assay in all cases: cleaved PARP positive nuclei fraction relative to DMSO control; melanoma cells; higher = more apoptosis
Conditions in all cases: library dose: low library concentration; 72 h
501Mel = tested on: 501Mel
A101D = tested on: A101D
A2058 = tested on: A2058
A375 = tested on: A375
C32 = tested on: C32
CBRC008 = tested on: CBRC008 (line from a melanoma biopsy)
CBRC014 = tested on: CBRC014 (line from a melanoma biopsy)
CBRC016 = tested on: CBRC016 (line from a melanoma biopsy)
CBRC017 = tested on: CBRC017 (line from a melanoma biopsy)

Row | SMILES | cleaved PARP positive nuclei fraction (501Mel) [%] | cleaved PARP positive nuclei fraction (A101D) [%] | cleaved PARP positive nuclei fraction (A2058) [%] | cleaved PARP positive nuclei fraction (A375) [%] | cleaved PARP positive nuclei fraction (C32) [%] | cleaved PARP positive nuclei fraction (CBRC008) [%] | cleaved PARP positive nuclei fraction (CBRC014) [%] | cleaved PARP positive nuclei fraction (CBRC016) [%] | cleaved PARP positive nuclei fraction (CBRC017) [%]
1 | NC(=O)c1ccc(N(C(N)=O)c2c(F)cccc2F)nc1-c1ccc(F)cc1F + COc1ccc(C2=N[C@@H](c3ccc(Cl)cc3)[C@@H](c3ccc(Cl)cc3)N2C(=O)N2CCNC(=O)C2)c(OC(C)C)c1 [Nutlin-3] (first compound 0.4 µM, partner dose 0.1 µM) | 75.6 | 48.8 | 63.8 | 67.7 | 81.9 | 70.4 | 86.2 | 93.6 | 70.5
2 | NC1(c2ccc(-c3nc4ccn5c(=O)[nH]nc5c4cc3-c3ccccc3)cc2)CCC1 + CO[C@H]1C[C@@H]2CC[C@@H](C)[C@@](O)(O2)C(=O)C(=O)N2CCCC[C@H]2C(=O)O[C@H]([C@H](C)C[C@@H]2CC[C@@H](OCCO)[C@H](OC)C2)CC(=O)[C@H](C)/C=C(\C)[C@@H](O)[C@@H](OC)C(=O)[C@H](C)C[C@H](C)/C=C/C=C/C=C/1C [everolimus] (first compound 0.4 µM, partner dose 0.02 µM) | 207 | 64.6 | 140 | 733 | 358 | 270 | 185 | 154 | 115
3 | NC1(c2ccc(-c3nc4ccn5c(=O)[nH]nc5c4cc3-c3ccccc3)cc2)CCC1 + Cn1c(Nc2ccc(C(F)(F)F)cc2)nc2cc(Oc3ccnc(-c4ncc(C(F)(F)F)[nH]4)c3)ccc21 [CHIR265] (first compound 0.4 µM, partner dose 0.08 µM) | 109 | 165 | 62.7 | 612 | 107 | 228 | 101 | 86.8 | 99.6
4 | CC1(C)CCC(c2ccc(Cl)cc2)=C(CN2CCN(c3ccc(C(=O)NS(=O)(=O)c4ccc(N[C@H](CCN5CCOCC5)CSc5ccccc5)c(S(=O)(=O)C(F)(F)F)c4)cc3)CC2)C1 + O=C(O)[C@@H]1[O][Sb](=[O])([O][Sb]2(=[O])[O][C@H]([C@H](O)CO)[C@H](O)[C@H](C(=O)O)[O]2)[O][C@H]([C@H](O)CO)[C@@H]1O [stibogluconate] (first compound 0.4 µM, partner dose 2 µM) | 81 | 310 | 129 | 441 | 167 | 836 | 402 | 1610 | 332
5 | C[C@@H](N)c1ccc(C(=O)Nc2ccnc3[nH]ccc23)cc1 + O=C(O)c1ccc2c(c1)nc(Nc1cccc(Cl)c1)c1ccncc12 [CX4945] (first compound 0.4 µM, partner dose 0.4 µM) | 119 | 103 | 162 | 134 | 81.9 | 169 | 166 | 188 | 219
6 | CC(=O)O[C@@]12CO[C@@H]1C[C@H](O)[C@@]1(C)C(=O)[C@H](O)C3=C(C)[C@@H](OC(=O)[C@H](O)[C@@H](NC(=O)OC(C)(C)C)c4ccccc4)C[C@@](O)([C@@H](OC(=O)c4ccccc4)[C@H]21)C3(C)C [Docetaxel] + Cn1c(Nc2ccc(C(F)(F)F)cc2)nc2cc(Oc3ccnc(-c4ncc(C(F)(F)F)[nH]4)c3)ccc21 [CHIR265] (first compound 0.0001 µM, partner dose 0.08 µM) | 2280 | 211 | 2840 | 2140 | 284 | 307 | 229 | 126 | 219
7 | Cn1cnc2c(F)c(Nc3ccc(Br)cc3Cl)c(C(=O)NOCCO)cc21 [selumetinib] + CC(C)C[C@H](NC(=O)[C@H](Cc1ccccc1)NC(=O)c1cnccn1)B(O)O [Bortezomib] (first compound 0.015 µM, partner dose 0.001 µM) | 2470 | 81.2 | 71.9 | 189 | 86.1 | 459 | 117 | 117 | 239
8 | CN(c1ncccc1CNc1nc(Nc2ccc3c(c2)CC(=O)N3)ncc1C(F)(F)F)S(C)(=O)=O + CS(=O)(=O)CCNCc1ccc(-c2ccc3ncnc(Nc4ccc(OCc5cccc(F)c5)c(Cl)c4)c3c2)o1 [lapatinib] (first compound 0.08 µM, partner dose 0.8 µM) | 120 | 27.1 | 207 | 340 | 312 | 162 | 198 | 56 | 90
9 | Cn1sc(=O)n(Cc2ccccc2)c1=O + OCc1c[nH]c2ccccc12 [Indole-3-carbinol] (first compound 0.4 µM, partner dose 0.8 µM) | 63.5 | 49.3 | 109 | 83.7 | 83.9 | 24 | 86.1 | 78.9 | 109
10 | CC1(C)CCC(c2ccc(Cl)cc2)=C(CN2CCN(c3ccc(C(=O)NS(=O)(=O)c4ccc(N[C@H](CCN5CCOCC5)CSc5ccccc5)c(S(=O)(=O)C(F)(F)F)c4)cc3)CC2)C1 + C[C@@H](N)c1ccc(C(=O)Nc2ccnc3[nH]ccc23)cc1 [RKI983] (first compound 0.4 µM, partner dose 0.4 µM) | 62.4 | 428 | 182 | 753 | 231 | 246 | 585 | 447 | 392
11 | CC(=O)O[C@@]12CO[C@@H]1C[C@H](O)[C@@]1(C)C(=O)[C@H](O)C3=C(C)[C@@H](OC(=O)[C@H](O)[C@@H](NC(=O)OC(C)(C)C)c4ccccc4)C[C@@](O)([C@@H](OC(=O)c4ccccc4)[C@H]21)C3(C)C [Docetaxel] + CCCS(=O)(=O)Nc1ccc(F)c(C(=O)c2c[nH]c3ncc(Cl)cc23)c1F [PLX4720] (first compound 0.0001 µM, partner dose 0.08 µM) | 1350 | 180 | 2140 | 1970 | 186 | 303 | 142 | 274 | 213
12 | C[C@]1(O)C[C@@H](c2nc(-c3ccc4ccc(-c5ccccc5)nc4c3)c3c(N)nccn32)C1 + C=CCNC1=C2C[C@@H](C)C[C@H](OC)[C@H](O)[C@@H](C)/C=C(\C)[C@H](OC(N)=O)[C@@H](OC)/C=C\C=C(/C)C(=O)NC(=CC1=O)C2=O [Tanespimycin] (first compound 0.4 µM, partner dose 0.002 µM) | 177 | 94.2 | 111 | 945 | 73 | 121 | 97.9 | 135 | 91.2
13 | CCN(CC)CCNC(=O)c1c(C)[nH]c(/C=C2\C(=O)Nc3ccc(F)cc32)c1C [sunitinib] + CC(=O)c1c(C)c2cnc(Nc3ccc(N4CCNCC4)cn3)nc2n(C2CCCC2)c1=O [palbociclib] (first compound 0.4 µM, partner dose 0.04 µM) | 204 | 105 | 147 | 248 | 107 | 38.7 | 107 | 74 | 189
14 | CS(=O)(=O)c1ccc(C(=O)Nc2ccc(Cl)c(-c3ccccn3)c2)c(Cl)c1 [vismodegib] + CN1CCN(c2ccc3nc(-c4c(N)c5c(F)cccc5[nH]c4=O)[nH]c3c2)CC1 [Dovitinib] (first compound 1 µM, partner dose 0.1 µM) | 102 | 84.2 | 278 | 131 | 77.4 | 61 | 106 | 401 | 117
15 | Cn1sc(=O)n(Cc2ccccc2)c1=O + Cc1cc(Nc2cc(N3CCN(C)CC3)nc(/C=C/c3ccccc3)n2)n[nH]1 [ENMD2076] (first compound 0.4 µM, partner dose 0.04 µM) | 39.4 | 49.1 | 168 | 36 | 76.8 | 50.9 | 91.1 | 94.5 | 261
16 | C[C@@H](N)c1ccc(C(=O)Nc2ccnc3[nH]ccc23)cc1 + NC1(c2ccc(-c3nc4ccn5c(=O)[nH]nc5c4cc3-c3ccccc3)cc2)CCC1 [MK2206] (first compound 0.4 µM, partner dose 0.4 µM) | 267 | 47.9 | 63.1 | 101 | 103 | 158 | 117 | 147 | 123
17 | CC(=O)O[C@@]12CO[C@@H]1C[C@H](O)[C@@]1(C)C(=O)[C@H](O)C3=C(C)[C@@H](OC(=O)[C@H](O)[C@@H](NC(=O)OC(C)(C)C)c4ccccc4)C[C@@](O)([C@@H](OC(=O)c4ccccc4)[C@H]21)C3(C)C [Docetaxel] + COCC[n+]1c2c(n(Cc3cnccn3)c1C)C(=O)c1ccccc1C2=O [YM155] (first compound 0.0001 µM, partner dose 0.0004 µM) | 364 | 102 | 4110 | 1960 | 85.3 | 220 | 148 | 374 | 228
18 | COc1ccc(C2=N[C@@H](c3ccc(Cl)cc3)[C@@H](c3ccc(Cl)cc3)N2C(=O)N2CCNC(=O)C2)c(OC(C)C)c1 [Nutlin-3] + C[C@@H](Oc1cc(-c2cnn(C3CCNCC3)c2)cnc1N)c1c(Cl)ccc(F)c1Cl [Crizotinib] (first compound 0.1 µM, partner dose 0.2 µM) | 195 | 279 | 99.5 | 116 | 28.4 | 161 | 82.1 | 96.2 | 88.9
19 | COc1ccc(C2=N[C@@H](c3ccc(Cl)cc3)[C@@H](c3ccc(Cl)cc3)N2C(=O)N2CCNC(=O)C2)c(OC(C)C)c1 [Nutlin-3] + Cc1cc(Nc2cc(N3CCN(C)CC3)nc(/C=C/c3ccccc3)n2)n[nH]1 [ENMD2076] (first compound 0.1 µM, partner dose 0.04 µM) | 71.5 | 48.8 | 46.2 | 101 | 83.5 | 75.2 | 85.4 | 121 | 90.1
20 | COc1ccc(C2=N[C@@H](c3ccc(Cl)cc3)[C@@H](c3ccc(Cl)cc3)N2C(=O)N2CCNC(=O)C2)c(OC(C)C)c1 [Nutlin-3] + COc1ccc(Cl)c(Nc2nc3ccccc3nc2NS(=O)(=O)c2cccc(NC(=O)C(C)(C)N)c2)c1 [XL147] (first compound 0.1 µM, partner dose 0.8 µM) | 87.4 | 45.6 | 95.7 | 69.4 | 80.5 | 240 | 103 | 131 | 152
21 | CC(=O)O[C@@]12CO[C@@H]1C[C@H](O)[C@@]1(C)C(=O)[C@H](O)C3=C(C)[C@@H](OC(=O)[C@H](O)[C@@H](NC(=O)OC(C)(C)C)c4ccccc4)C[C@@](O)([C@@H](OC(=O)c4ccccc4)[C@H]21)C3(C)C [Docetaxel] + CN1CCN(c2ccc3nc(-c4c(N)c5c(F)cccc5[nH]c4=O)[nH]c3c2)CC1 [Dovitinib] (first compound 0.0001 µM, partner dose 0.1 µM) | 161 | 288 | 1220 | 3380 | 88.4 | 241 | 180 | 345 | 239

Just cleaved PARP positive nuclei fraction (CBRC014) [%], cleaved PARP positive nuclei fraction (501Mel) [%] and cleaved PARP positive nuclei fraction (A2058) [%] (two entries from above):
Row | SMILES | cleaved PARP positive nuclei fraction (CBRC014) [%] | cleaved PARP positive nuclei fraction (501Mel) [%] | cleaved PARP positive nuclei fraction (A2058) [%]
14 | CS(=O)(=O)c1ccc(C(=O)Nc2ccc(Cl)c(-c3ccccn3)c2)c(Cl)c1 [vismodegib] + CN1CCN(c2ccc3nc(-c4c(N)c5c(F)cccc5[nH]c4=O)[nH]c3c2)CC1 [Dovitinib] (first compound 1 µM, partner dose 0.1 µM) | 106 | 102 | 278
15 | Cn1sc(=O)n(Cc2ccccc2)c1=O + Cc1cc(Nc2cc(N3CCN(C)CC3)nc(/C=C/c3ccccc3)n2)n[nH]1 [ENMD2076] (first compound 0.4 µM, partner dose 0.04 µM) | 91.1 | 39.4 | 168
